Assay results from US9481610B2, “Use of a fertilizer containing L-amino acid for improving root growth and growth of mycorrhiza” (SweTree Technologies AB, priority 2007, dated 2016).

Tested on: Arabidopsis thaliana
Assay: Allocation of glutamine-N and nitrate-N (15N labelling) in Arabidopsis
Type: in vivo
Details: Arabidopsis thaliana supplied with mixture of L-Glutamine and nitrate, 3 mM N, 21 days; FIG. 2

| SMILES | root nitrogen derived from uptake of the nitrogen form | whole plant nitrogen derived from uptake of the nitrogen form |
| --- | --- | --- |
| NC(=O)CC[C@H](N)C(=O)O [L-Glutamine] | ~75% | ~50% |
| O=[N+]([O-])O [nitrate] | ~25% | ~45% |
